Here are results for two molecules from PMC7958565.

By UniProt entry, the sequences of proteins in these tests, tags left out.
UniProt Q86WV6: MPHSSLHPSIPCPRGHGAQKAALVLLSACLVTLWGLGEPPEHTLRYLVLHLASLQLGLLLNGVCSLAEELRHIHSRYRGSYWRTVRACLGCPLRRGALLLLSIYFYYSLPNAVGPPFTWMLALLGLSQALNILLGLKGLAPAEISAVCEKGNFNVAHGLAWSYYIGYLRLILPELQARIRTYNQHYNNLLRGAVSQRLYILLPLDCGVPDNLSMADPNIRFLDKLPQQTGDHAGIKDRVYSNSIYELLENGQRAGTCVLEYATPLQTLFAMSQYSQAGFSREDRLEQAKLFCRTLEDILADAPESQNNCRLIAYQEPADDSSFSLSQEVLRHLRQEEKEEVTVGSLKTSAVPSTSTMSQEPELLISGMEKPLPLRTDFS

Assay [1] has as its target human STING-Flag (human), Q86WV6. Nature of the assay: co-IP. The note with it: remark: other sources report otherwise.
The target of another assay is human STING-Flag (human) (UniProt Q86WV6). Nature of the assay: co-IP.

No constants are given. Whether binding was seen depends on the method and setting. Binding seen in cells or lysates may run through a third protein. Some results given as binding are weak or reduced against the parent protein; the word gives no strength.

B1: endogenous TBK1, Q9UHD2 1-729 (enzyme)
chain: MQSTSNHLWLLSDILGQGATANVFRGRHKKTGDLFAIKVFNNISFLRPVDVQMREFEVLKKLNHKNIVKLFAIEEETTTRHKVLIMEFCPCGSLYTVLEEPSNAYGLPESEFLIVLRDVVGGMNHLRENGIVHRDIKPGNIMRVIGEDGQSVYKLTDFGAARELEDDEQFVSLYGTEEYLHPDMYERAVLRKDHQKKYGATVDLWSIGVTFYHAATGSLPFRPFEGPRRNKEVMYKIITGKPSGAISGVQKAENGPIDWSGDMPVSCSLSRGLQVLLTPVLANILEADQEKCWGFDQFFAETSDILHRMVIHVFSLQQMTAHKIYIHSYNTATIFHELVYKQTKIISSNQELIYEGRRLVLEPGRLAQHFPKTTEENPIFVVSREPLNTIGLIYEKISLPKVHPRYDLDGDASMAKAITGVVCYACRIASTLLLYQELMRKGIRWLIELIKDDYNETVHKKTEVVITLDFCIRNIEKTVKVYEKLMKINLEAAELGEISDIHTKLLRLSSSQGTIETSLQDIDSRLSPGGSLADAWAHQEGTHPKDRNVEKLQVLLNCMTEIYYQFKKDKAERRLAYNEEQIHKFDKQKLYYHATKAMTHFTDECVKKYEAFLNKSEEWIRKMLHLRKQLLSLTNQCFDIEEEVSKYQEYTNELQETLPQKMFTASSGIKHTMTPIYPSSNTLVEMTLGMKKLKEEMEGVVKELAENNHILERFGSLTMDGGLRNVDCL
Consider B1, for which the binding result in assay [1] is “binds”.

B2: endogenous IKKβ (enzyme, UniProt O14920 1-756)
chain: MSWSPSLTTQTCGAWEMKERLGTGGFGNVIRWHNQETGEQIAIKQCRQELSPRNRERWCLEIQIMRRLTHPNVVAARDVPEGMQNLAPNDLPLLAMEYCQGGDLRKYLNQFENCCGLREGAILTLLSDIASALRYLHENRIIHRDLKPENIVLQQGEQRLIHKIIDLGYAKELDQGSLCTSFVGTLQYLAPELLEQQKYTVTVDYWSFGTLAFECITGFRPFLPNWQPVQWHSKVRQKSEVDIVVSEDLNGTVKFSSSLPYPNNLNSVLAERLEKWLQLMLMWHPRQRGTDPTYGPNGCFKALDDILNLKLVHILNMVTGTIHTYPVTEDESLQSLKARIQQDTGIPEEDQELLQEAGLALIPDKPATQCISDGKLNEGHTLDMDLVFLFDNSKITYETQISPRPQPESVSCILQEPKRNLAFFQLRKVWGQVWHSIQTLKEDCNRLQQGQRAAMMNLLRNNSCLSKMKNSMASMSQQLKAKLDFFKTSIQIDLEKYSEQTEFGITSDKLLLAWREMEQAVELCGRENEVKLLVERMMALQTDIVDLQRSPMGRKQGGTLDDLEEQARELYRRLREKPRDQRTEGDSQEMVRLLLQAIQSFEKKVRVIYTQLSKTVVCKQKALELLPKVEEVVSLMNEDEKTVVRLQEKRQKELWNLLKIACSKVRGPVSGSPDSMNASRLSQPGQLMSQPSTASNSLPEPAKKSEELVAEAHNLCTLLENAIQDTVREQDQSFTALDWSWLQTEEEEHSCLEQAS
As for B2, the binding result in the assay with human STING-Flag (human) is reported as “binds”.
